# US12521393B2, “Cytotoxicity targeting chimeras for CCR2-expressing cells” (GLAXOSMITHKLINE INTELLECTUAL PROPERTY DEVELOPMENT LIMITED, priority 2021, dated 2026)
# The chains behind the UniProt entries cited, without tags or fusion partners. Where a name states a change or a piece, a line headed by the entry shows the natural chain unless it says otherwise.
# UniProt P41597, whole entry: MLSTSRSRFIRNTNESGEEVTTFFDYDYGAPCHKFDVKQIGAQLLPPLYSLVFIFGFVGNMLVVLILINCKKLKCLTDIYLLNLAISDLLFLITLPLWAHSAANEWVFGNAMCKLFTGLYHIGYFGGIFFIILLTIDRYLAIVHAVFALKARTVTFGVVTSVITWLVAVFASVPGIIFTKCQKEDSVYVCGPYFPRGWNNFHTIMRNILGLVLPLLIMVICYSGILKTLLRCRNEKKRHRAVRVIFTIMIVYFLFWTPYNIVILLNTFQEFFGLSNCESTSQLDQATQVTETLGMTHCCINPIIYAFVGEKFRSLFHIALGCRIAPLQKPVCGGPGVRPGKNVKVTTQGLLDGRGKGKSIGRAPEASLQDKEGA
# The match of structure and compound is tentative.
# How the values were obtained:
# [1] = biological target: CHOK1 cells engineered to overexpress human CCR2 (Homo sapiens, UniProt P41597); test: Antibody dependent cellular cytotoxicity (ADCC) reporter assay (Example 199); details: with anti-cotinine antibody (SEQ ID NO: 11/12); Jurkat FcγRIIIa NFAT-luciferase reporter cells; 12-18 hours; EC50 in molar; average or individual runs
# Method: An antibody dependent cellular cytoxocity reporter assay was conducted using the following four assay components: (i) ARM compound of Formula (I) targeting CCR2 (concentrations ranging from […] to 10 μM) (ii) anti-cotinine antibody having a heavy chain sequence of SEQ ID NO: 11 and a light chain sequence of SEQ ID NO: 12 (rabbit variable region with human IgG1 Fc domain containing a DE mutation (S239D/1332E)) (concentrations ranging from 0.01 μg/mL to 200 μg/mL); (iii) target cells: CHOK1 cells engineered to overexpress either human CCR2 (typically 1000-20,000 cells per well) and (iv) reporter cells: Jurkat cells engineered to express FcγRIIIa with the reporter gene luciferase under the control of the NFAT promoter (typically 3000-75,000 cells per well). Reagents were combined in a final volume of 20 μL in a 384-well tissue culture treated plate. […] Luminescence signal was measured on a microplate reader and signal: background was calculated by dividing the signal of a test well by the signal obtained when no heterobivalent compound of Formula (I) was added. […]
# ARMs compounds of Formula (I) of the invention were tested for ADCC activity in the above assay in or more experimental runs and the results are shown in Table 3 below. […] The pEC50 value is the negative log of the EC50 value, wherein the EC50 value is the half maximal effective concentration measured in molar (M). […]
# [2] = test system: endogenous target monocytes in human PBMC; test: PBMC ex vivo monocyte depletion flow cytometry assay (Example 200); details: with anti-cotinine antibody (SEQ ID NO: 11/12), 18-24 hours, EC50 in molar
# Method: A human PBMC (peripheral blood mononuclear cells) monocyte depletion flow cytometry assay was developed to screen compounds in a 384-well plate format. This assay incorporated endogenous natural killer cells to deplete endogenous target monocytes.
# To screen compounds in the human PBMC monocyte depletion flow cytometry assay, 11-point dose-response curves were made from 1 mM stocks in neat DMSO by serially diluting an ARM compound of Formula (I) four-fold into a 384-well plate row-wise. These serially diluted compounds were then stamped into a flat bottom polypropylene 384-well plate (Greiner Bio-One) at 100 nL/well. […]
# After 18-24 hours incubation, 2 μL of 6.25 μg human FC block (BD Pharmingen) that was diluted in assay medium was added to the wells of the plate. […] Samples from the plate were run on BD FACS Canto II flow cytometer and data was analyzed using FlowJo software.
# ARMs compounds of Formula (I) of the invention were tested for the ability to deplete monocytes in the above assay in one or more experimental runs and the results are shown in Table 3 below. […] The pEC50 value is the negative log of the EC50 value, wherein the EC50 value is the half maximal effective concentration measured in molar (M). For compounds tested in more than one experimental run, the pEC50 value is reported as an average or as the individual values measured
structure (smiles),measurement,setting,value
CC(C)N(C)[C@@H]1CC[C@H](N2CC[C@H](Nc3ncnc4ccc(C(F)(F)F)cc34)C2=O)[C@H](NC(=O)C2CCN(C3CCN(C(=O)CCCCCCCNC(=O)[C@@H]4CC(=O)N(C)[C@H]4c4cccnc4)CC3)CC2)C1,ADCC Reporter Assay pEC50,[1],8.6
same,Ex Vivo Depletion Assay pEC50,[2],9.3
